By AC50 is commonly meant the concentration at which the activity in the assay is half-maximal. The low end stands for activity at low concentration, the high end for activity only at high concentration.

The structures appear in SMILES notation. Some of the results follow. Shown are side measurements of this screen, not its main read-out; they come without a call. Most of these compounds were active or inconclusive in the main read-out, so they are no random draw. Words in brackets tell the shape of the fitted curve; partial curves, single points and poor fits give uncertain potencies.

Results on 17 compounds are retold here after PubChem BioAssay AID2685 (National Center for Advancing Translational Sciences (NCATS), 2010).

The assay in a line: qHTS Assay for Lipid Storage Modulators in Drosophila S3 Cells.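 On cell number change: cells counted by Cell Tracker Red CMTPX staining in the red channel.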 The following applies: BODIPY lipid droplet fluorescence, 18-24 h; for cell number change: measured here: cell count max response, cells fed with added oleic acid. The essentials:
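Drosophila S3 cells got compounds at several concentrations plus oleic acid (400 uM solution). Laser-scanning cytometry with 488 nm excitation read lipid droplets at 500-530 nm and cells at 575-640 nm. Percent activity was relative to 20 uM Triacsin C.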

The mark [1] stands for this setting: measured here: lipid fluorescence (Fed channel) AC50, cells fed with added oleic acid.
Setting [2] is: measured here: cell number channel AC50, cells fed with added oleic acid.

Regarding `CN(CC(=O)Nc1ccc(F)c(F)c1F)C(=O)CN1C(=O)NC2(CCCC2)C1=O`, the cell number change was -3.21%.
`CCCCN(C(=O)CC1CCCC1)c1c(N)n(CCCC)c(=O)[nH]c1=O`: the cell number change was -5.42%. The AC50 under setting [1] is 29.1 µM [falling, partial curve].
`COC(=O)c1sc(NC(=O)COC(=O)C2CCC2)c(C(=O)OC)c1C`: the cell number change was -15.3%. The AC50 under setting [1] is 0.326 µM [falling, full curve, poor fit].
Turning to `COc1ccc(C(C)=O)cc1CC(=O)Nc1ccccc1-c1ccccc1`, the cell number change was -15.9%. For the same compound, the AC50 under setting [1] was 4.61 µM [falling, full curve, poor fit].
Consider `Cc1cc2c(=O)n(C)c(SCC(=O)NC3CCCC3)nc2s1`, for which the cell number change stood at 20.8%. In addition, the AC50 under setting [2] was 0.184 µM [rising, full curve, poor fit]. Moreover, under setting [1], the AC50 was 2.06 µM [rising, full curve].
On to `Cc1nnc(N2CCOCC2)c2nn(-c3ccccc3)c(C)c12`, for which the cell number change came to 8.61%. Further, the half-maximal activity concentration (AC50) under setting [1] was 8.2 µM [rising, partial curve].
Turning to `CCc1cc(CNC(=O)C2CCC(=O)N(CCc3ccc(OC)cc3)C2)on1` (centres undefined), the cell number change was found to be 8.91%. The AC50 under setting [2] is 3.26 µM [rising, single point].
On to `O=[N+]([O-])c1ccc(O)c(/C=N/NC(=S)Nc2ccc(Cl)cc2Cl)c1`, for which the cell number change is -59.9%. For the same compound, the AC50 under setting [2] is 0.92 µM [falling, full curve, poor fit]. The AC50 under setting [1] was 5.8 µM [falling, partial curve].
`O=C1OC(Cc2ccccn2)C(O)=C1C1=NCCCCN1` (centres undefined): the cell number change was -16.1%. For the same compound, the AC50 under setting [2] was 3.66 µM [falling, single point].
As to `CC(C)c1ccc(NC(=S)NC2CCCCCC2)cc1`, the cell number change was -32.3%. In addition, the AC50 under setting [2] was 6.51 µM [falling, partial curve].
For `N#Cc1cc2c(nc1S(=O)(=O)Cc1ccccc1)CCCC2`, under setting [1], the AC50 was 0.58 µM [falling, full curve].
With `CCOc1ccccc1CN1CCNC(=O)C1CC(=O)NCc1nc(C)cs1` (centres undefined), the cell number change is -0.567%. Also, the AC50 under setting [1] was 1.3 µM [rising, full curve].
As for `COc1ccccc1NC(=O)Cn1nnc(-c2ccccc2NC(=O)c2cc3ccccc3oc2=O)n1`, the cell number change is -2.53%. The AC50 under setting [1] is 0.259 µM [rising, full curve, poor fit].
Turning to `COc1cccc(CN2CC(C(=O)NCCCc3ccncc3)CCC2=O)c1` (centres undefined), the cell number change was found to be 9.83%. For the same compound, the AC50 under setting [1] is 0.82 µM [rising, full curve, poor fit].
Regarding `CN(c1ccc(C(=O)Nc2cccc(O)c2)cc1)S(=O)(=O)c1ccccc1`, the cell number change was 4.95%. In addition, the AC50 under setting [1] is 29.1 µM [falling, single point].
As for `C=CCNC(=S)N1CCN(Cc2ccccc2)CC1`, the cell number change amounted to 17%.
On to `COCc1cc(=O)[nH]c(SCC(=O)Nc2ccccc2)n1`, for which the cell number change was -66.4%. Also, the AC50 under setting [2] is 25.9 µM [falling, single point]. For the same compound, the AC50 under setting [1] was 29.1 µM [falling, single point].
